Measurements taken from patent publication US20090029979A1, “5-HTX MODULATORS” (BIO-MEDISINSK INNOVASJON AS, priority 2005, published 2009).
At least one structure is not confirmed: it was looked up by name or label, or the drawing left a doubt.

By UniProt entry, the sequences of proteins in these tests, tags left out. Where a name states a change or a piece, a line headed by the entry shows the natural chain unless it says otherwise.
UniProt Q13639: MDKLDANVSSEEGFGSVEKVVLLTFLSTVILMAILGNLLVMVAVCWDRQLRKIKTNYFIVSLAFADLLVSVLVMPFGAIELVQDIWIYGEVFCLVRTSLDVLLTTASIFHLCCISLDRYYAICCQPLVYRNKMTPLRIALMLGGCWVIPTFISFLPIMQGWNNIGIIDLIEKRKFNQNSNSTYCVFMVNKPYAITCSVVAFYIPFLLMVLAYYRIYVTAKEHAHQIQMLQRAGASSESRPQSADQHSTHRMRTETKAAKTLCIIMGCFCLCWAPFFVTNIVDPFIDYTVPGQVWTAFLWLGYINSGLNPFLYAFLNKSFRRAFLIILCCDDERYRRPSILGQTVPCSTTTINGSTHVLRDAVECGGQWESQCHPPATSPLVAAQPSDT

Biological target: T1, human 5-HT4(b) receptors (Homo sapiens, UniProt Q13639)
T1 construct: expressed in transfected cells
Assay: Adenylyl cyclase assay in membranes of HEK293 cells stably expressing human 5-HT4(b) receptors
Assay type: biochemical
Experimental: The development of HEK293 cell lines stably expressing human 5-HT4(b) receptors was described and published previously (Bach et al. 2001). Briefly, HEK293 cells (ATCC) were grown in Dulbecco's modified Eagle's medium with 10% fetal calf serum and penicillin (100 U/ml) and streptomycin (100 μg/ml). Cells were transfected with plasmid DNA (pcDNA3.1(−) containing human 5-HT4(b) receptor cDNA) using SuperFect Transfection Reagent (QIAGEN) according to the manufacturers protocol. Serial dilutions of transfected cells were plated in 96 well plates containing G418 (geneticin; Amersham) at 0.4 mg/ml, and isolated single colonies of cells transformed to the neomycin-resistant phenotype were expanded and tested for expression of serotonin receptors by measuring serotonin-stimulated adenylyl cyclase activity (Themmen et al. 1993). Transformed cells were always grown in the presence of G418 (0.4 mg/ml). […]
Adenylyl cyclase activity was measured by determining conversion of [α-^32P]ATP to [^32P]cAMP in membranes prepared in STE by homogenization of cells grown and washed as described above in a Dounce glass-glass homogenizer by 10 strokes with the tight-fitting pestle. […] Adenylyl cyclase activities were measured on 10-μl aliquots in a final volume of 50 μl in the presence of 0.1 mM [α-^32P]ATP (1-2×10^6 cpm/assay), 4 mM MgCl2, 20 μM GTP, 1 mM EDTA, 1 mM [^3H]cAMP (ca. 10,000 cpm/assay), 1 μM 3-isobutyl-1-methyl xanthine (IBMX; Sigma), a nucleoside triphosphate regenerating system consisting of 20 mM creatine phosphate (Sigma), 0.2 mg/ml creatine phosphokinase (Sigma) and 40 U/ml myokinase (Sigma) and additives described in the text and figures. […] Cyclic AMP formed was quantified by the double column chromatography system of Salomon et al. (1974) as modified by Bockaert et al. (1976).
Binding and adenylyl cyclase data were analyzed by non-linear regression using Microsoft Excel with the Solver add-in, using the below equations. […]

| Structure (SMILES) | Agonist/Antagonist properties |
| --- | --- |
| O=C(CCCN1CCC(COC(=O)c2c[nH]c3ccccc23)CC1)OCC(Cl)(Cl)Cl [Example 12, 1H-indole-3-carboxylic acid 1-[3-(2,2,2-trichloroethyl-ethoxycarbonyl)-propyl]-piperidine-4-ylmethyl ester] | Antagonist |
| CC(C)n1nc(C(=O)NC2CCN(Cc3ccc(C(=O)O)cc3)CC2)c2ccccc21 [Example 36] | Partial agonist |
| O=C(CCCN1CCC(CNC(=O)c2c3n(c4ccccc24)CCCO3)CC1)OCC(Cl)(Cl)Cl [Example 51] | Antagonist |
